Assay results: PubChem BioAssay AID540276 (National Center for Advancing Translational Sciences (NCATS), 2011)
In all, about 300,000 compounds went through this assay and about 5,400 (1.8%) were called active. The shares of active, inactive and inconclusive entries below differ from those in the screen. Calls follow the shape of the full dose curve; tested in HEK293 cells. Potencies beside an inconclusive call are fits to weak or partial responses and may not hold up.

test: qHTS for inhibitors of binding or entry into cells for Marburg Virus; conditions: Marburg virus pseudotyped entry inhibition, cell reporter; activity change, negative = inhibition: at 37.8 µM (top of the series) unless noted
% is scaled to controls: 0 for no effect and ±100 for the full control effect; potency is read from the fitted curve at half-maximal effect.

Structure (SMILES) | activity change, negative = inhibition | Potency
FC(F)(F)c1nnc(-c2ccccc2)nc1N1CCOCC1 | inactive: -0.271% | 
Cc1ccc(S(=O)(=O)NC2OC(=O)C(Cl)=C2Cl)cc1 (centres undefined) | inactive: 4.41% | 
N#Cc1c(-c2ccccc2F)cc(-c2cccnc2)nc1N |  | inconclusive: 29.1 µM [inhibitor, single point]
CCN(CC)c1cc(C)c2cc(NC(=O)c3ccc(OC)c(OC)c3)ccc2n1 |  | inconclusive: 15.8 µM [inhibitor, partial curve, poor fit]
COc1cc(NC2c3ncccc3C(=O)N2Cc2ccco2)cc(OC)c1OC (centres undefined) |  | inconclusive: 35.5 µM [inhibitor, single point]
COc1nc(N2CCOCC2)nc(-n2cccc2)n1 |  | inconclusive: 29.1 µM [inhibitor, partial curve, poor fit]
Oc1c(N=NC(=S)Nc2ccccc2F)c2ccccc2n1Cc1ccc(Cl)cc1 |  | inconclusive: 14.6 µM [inhibitor, partial curve]
C/C(=N/NC(=O)c1ccncc1)c1ccccc1 |  | inconclusive: 0.316 µM [inhibitor, partial curve, poor fit]
Cc1cccc(C2c3[nH]c4ccccc4c3CCN2C(=O)c2nn(C)c(=O)c3ccccc23)n1 (centres undefined) |  | inconclusive: 5.62 µM [inhibitor, partial curve, poor fit]
Cc1c(C#N)c2ncnc(N)c2n1-c1ccccc1 |  | inconclusive: 3.55 µM [activator, single point]
O=C1c2ccccc2-c2c1cccc2C(=O)N1CCOCC1 | inactive: 14.7% | 
O=C(NCc1ccccc1)c1ccc2c(c1)N(Cc1ccccc1F)C(=O)c1ccccc1S2=O (centres undefined) |  | inconclusive: 6.31 µM [inhibitor, full curve]
O=C(Cn1c(=O)n(-c2ccccc2)c(=O)c2c3c(sc21)CCC3)c1ccc(F)cc1 |  | inconclusive: 3.16 µM [inhibitor, single point]
C#CCOCCOCCOCCNc1nc(N2CCN(C(=O)Cn3cc(CCO)nn3)CC2)nc(N2CCN(C(=O)Cn3cc(CCCN=C(N)N)nn3)CC2)n1 | inactive: -4.16% | 
CSc1ccc(C2c3[nH]c4ccccc4c3CCN2C(=O)c2ccnn2C)cc1 (centres undefined) |  | inconclusive: 7.08 µM [inhibitor, full curve, poor fit]
CCOc1ccc(N2CC(C(=O)Nc3nnc(Cc4ccccc4)s3)CC2=O)cc1 (centres undefined) |  | inconclusive: 25.1 µM [inhibitor, partial curve, poor fit]
O=C(CN(C(=O)CNC(=O)c1ccco1)c1ccccc1F)NC1CCCCC1 |  | inconclusive: 3.16 µM [activator, single point]
Cc1ccsc1/C=N/NC(=O)c1ccc(-n2cccc2)cc1 |  | inconclusive: 0.316 µM [activator, full curve, poor fit]
COc1cccc(CN(C(=O)COc2ccc(Cl)c(C)c2)C2CCS(=O)(=O)C2)c1 (centres undefined) | inactive: 3.99% [at 46.1 µM] | 
CC(C)(C)C(=O)Nc1nnc(SCC(=O)NC2CCCC2)s1 | inactive: 5.65% [at 46.1 µM] | 
OC(CSc1ccccc1Cl)CN1CCN(c2ccccc2F)CC1 (centres undefined) |  | inconclusive: 32.6 µM [inhibitor, single point]
O=C(CSc1nc2ccccc2s1)N1c2ccccc2Sc2ccc(Cl)cc21 | inactive: -24.5% | 

Structure (SMILES) | activity change, negative = inhibition | Potency
O=C(Nc1nc(-c2cccs2)cs1)c1ccc(S(=O)(=O)N2CCCC2)cc1 |  | active: 11.6 µM
CCOc1ccccc1NC(=O)CSc1nc2ccccc2nc1N1CCOCC1 |  | inconclusive: 15.8 µM [inhibitor, single point]
COc1ccc(NC(=O)c2cc(Cl)ccc2NC(=O)c2ccco2)c(OC)c1 |  | inconclusive: 3.55 µM [inhibitor, full curve, poor fit]
CN1CCN(c2ccc(NC(=O)c3sc4ccccc4c3Cl)cc2)CC1 |  | inconclusive: 0.891 µM [activator, single point]
CS(=O)c1nc(-c2ccc(Br)cc2)cc(-c2ccccc2)c1C#N (centres undefined) |  | inconclusive: 18.3 µM [inhibitor, single point]
O=C(c1ccc2ccccc2n1)N1CCN(c2ccccc2O)CC1 | inactive: 2.9% | 
O=C(Nc1ccccc1F)C(=O)Nc1cccc2ccccc12 |  | inconclusive: 3.16 µM [activator, full curve, poor fit]
COc1ccc2c(CC(=O)OCC(=O)N(C)c3c(N)n(Cc4ccccc4)c(=O)[nH]c3=O)coc2c1 | inactive: 8.23% | 
Cc1sc2ncnc(NCC3COc4ccccc4O3)c2c1C (centres undefined) | inactive: -26.8% | 
O=C(CCSCc1ccccc1Cl)N1CCN(c2ccccn2)CC1 | inactive: 16.6% | 
COc1ccc(N2CCN(C(=O)CSc3ncnc4scc(-c5ccc(C)cc5)c34)CC2)cc1 |  | inconclusive: 16.4 µM [inhibitor, partial curve, poor fit]
COc1ccccc1C(c1nnnn1Cc1ccccc1)N1CCC(C(N)=O)CC1 (centres undefined) |  | inconclusive: 1.3 µM [inhibitor, single point]
Cc1nnsc1C(=O)Nc1ccc(Cl)cc1 | inactive: 28.2% | 
O=C(c1ccc(S(=O)(=O)Nc2ccc(F)cc2)cc1)N1CCN(c2ccccn2)CC1 |  | inconclusive: 6.31 µM [inhibitor, partial curve, poor fit]
COc1cccc(O)c1CN1CCCC(C(=O)c2ccccc2SC)C1 (centres undefined) |  | inconclusive: 3.55 µM [inhibitor, partial curve, poor fit]
COc1cc(OC)cc(C(=O)NC(=S)NCCc2ccccc2)c1 | inactive: -0.178% | 
Cc1cc(/C=C2\SC(N)=NC2=O)c(C)n1-c1ccccc1 |  | inconclusive: 1 µM [activator, single point]
COc1cccc(NC(=O)c2cc(CN3C(=O)c4ccccc4C3=O)ccc2OC)c1 |  | inconclusive: 29.1 µM [activator, partial curve, poor fit]
O=c1c(-c2ccnn2-c2ccccc2F)cnc2n1CCS2 |  | inconclusive: 17.8 µM [activator, single point]
Cc1cc(F)ccc1NC(=O)c1csc2c1CCC(C)C2 (centres undefined) |  | inconclusive: 5.62 µM [activator, single point]
CN=C(Nc1ccc(C(=O)OC)s1)c1ccc(Cl)cc1 | inactive: -0.615% [at 46.1 µM] | 
CC(C)=CC(=O)OCC(=O)Nc1cc([N+](=O)[O-])ccc1F | inactive: -12.5% | 
CCN1CCN(c2ccc(S(=O)(=O)N3CCOCC3)cc2NC(=O)c2cccc([N+](=O)[O-])c2)CC1 |  | inconclusive: 12.6 µM [inhibitor, single point]

Grouped by structure, the entries above with a nitro group on carbon (2)
Structure (SMILES) | activity change, negative = inhibition | Potency
CC(C)=CC(=O)OCC(=O)Nc1cc([N+](=O)[O-])ccc1F | inactive: -12.5% | 
CCN1CCN(c2ccc(S(=O)(=O)N3CCOCC3)cc2NC(=O)c2cccc([N+](=O)[O-])c2)CC1 |  | inconclusive: 12.6 µM [inhibitor, single point]

Record cards, from the list above.
Cc1nnsc1C(=O)Nc1ccc(Cl)cc1 is listed as activity change, negative = inhibition: inactive: 28.2%
CCOc1ccccc1NC(=O)CSc1nc2ccccc2nc1N1CCOCC1 is listed as Potency: inconclusive: 15.8 µM [inhibitor, single point]

Further results:

Structure (SMILES) | activity change, negative = inhibition | Potency
COc1ccc(N(CC(=O)NCCSCc2cccc(Cl)c2)S(C)(=O)=O)cc1Cl |  | inconclusive: 7.94 µM [inhibitor, partial curve, poor fit]
COc1ccc(-c2cn3c(C)c(C(=O)N4CCN(c5ccc(F)cc5)CC4)sc3n2)cc1 | inactive: -0.724% | 
Cc1cccc(NC(=O)C2CCN(S(=O)(=O)c3ccc(Cl)cc3)CC2)n1 |  | inconclusive: 7.94 µM [inhibitor, partial curve]
Nc1nc(N)nc(C2C=CCCC2)n1 (centres undefined) | inactive: 26.7% [at 46.1 µM] | 
CC1=NN(c2ccccc2)C(=O)/C1=C/c1cc(C)n(C2CC2)c1C | inactive: 29.9% [at 46.1 µM] | 
Cc1nn(Cc2ccc(Cl)cc2Cl)c(C)c1NC(=O)c1nn(C)cc1Cl |  | inconclusive: 0.0291 µM [inhibitor, full curve, poor fit]
COc1ccc(Br)c(OC)c1C(=O)NC(=O)Nc1nc(C)cc(C)n1 | inactive: -19.9% [at 46.1 µM] | 
CCN(CC)S(=O)(=O)c1ccc(C(=O)N(c2ccc(C)cc2)C2C=CS(=O)(=O)C2)cc1 (centres undefined) | inactive: 8.2% [at 46.1 µM] | 
CCOC(=O)N1CC=C2C(C#N)=C(N)C(C#N)(C#N)[C@H](c3ccc(OC(C)C)c(OCC)c3)[C@H]2C1 |  | inconclusive: 35.5 µM [inhibitor, single point]
S=C(NCc1ccco1)Nc1ccc(Cl)c(Cl)c1 |  | inconclusive: 32.6 µM [inhibitor, single point]
Cc1ccc(CN2CCN(Cc3ccccc3F)CC2)cc1 |  | inconclusive: 29.1 µM [inhibitor, single point]
N#Cc1c(-c2ccccc2)nc(SCC(=O)Nc2nnc(C(F)(F)F)s2)[nH]c1=O |  | inconclusive: 6.31 µM [activator, single point]
CCn1c(=O)c(C(=O)CN2CCN(S(=O)(=O)c3cc(C)ccc3C)CC2)c(N)n(Cc2ccccc2)c1=O |  | inconclusive: 17.8 µM [inhibitor, single point]
Cc1cc(C)n(CCNC(=O)c2ccco2)n1 | inactive: 16.1% | 
CCC(c1ccccc1)C(CC)c1cc(O)c(O)c(O)c1 (centres undefined) |  | inconclusive: 2.24 µM [inhibitor, partial curve, poor fit]
CN(C)CCCn1c(SCC(=O)Nc2nc(-c3cccc(Br)c3)cs2)nc2ccccc2c1=O |  | active: 11.2 µM
CC(=O)Nc1cccc(NC(=O)c2cccc(S(=O)(=O)N3CCN(Cc4ccccc4)CC3)c2)c1 | inactive: 6.13% | 
O=C(Cn1c(=O)n(Cc2ccco2)c(=O)c2c3c(sc21)CCCCC3)c1ccccc1 | inactive: -3.09% | 
O=C1/C(=C/c2ccncc2)N2CCC1CC2 |  | inconclusive: 35.5 µM [inhibitor, single point]
CCOc1ccc(/C=C/c2nc(C#N)c(N3CCN(CC)CC3)o2)cc1 | inactive: -12.8% [at 46.1 µM] | 
CCOC(=O)Cn1nnnc1CN(Cc1ccc(OC)cc1)Cc1cc2cc(C)ccc2[nH]c1=O | inactive: -9.84% | 
COC(=O)c1[nH]c2cc(OC)ccc2c1NC(=O)CCN1CCSCC1 | inactive: -1.02% [at 46.1 µM] | 
C/C(=N\NC(=O)c1nn(C)c(C)c1Br)c1ccc(NC(=O)c2ccc(C)s2)cc1 |  | inconclusive: 10 µM [activator, partial curve, poor fit]
